# Data published in the supplement of paper PMC5355238.
# Counter-ions that a name gives are not always drawn. The list shows a part of the results. Most entries show no effect beyond the scatter of the controls.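 Using flow cytometry, the assay measures the median γH2AX antibody signal in S-phase Reh cells (a human leukemia line). Each score is the number of standard deviations from the median difference of paired plate sets. Candidate hits scored above 2.5; compounds scoring below -2 lowered MK1775-induced damage.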
# Tested on: Reh
# Experiment: Z' of S-phase gammaH2AX difference (drug + MK1775 minus drug alone) (Z-score); higher = stronger synergistic S-phase DNA damage with MK1775
# Details: MK1775 concentration 400 nM; first compound 10 µM; 4 h
row,SMILES,Z' of S-phase gammaH2AX difference (Z-score)
1,O=c1[nH]c2cc(Cl)ccc2c(O)c1-c1cccc(Oc2ccccc2)c1 + C=CCn1c(=O)c2cnc(Nc3ccc(N4CCN(C)CC4)cc3)nc2n1-c1cccc(C(C)(C)O)n1 [MK1775],inactive: -0.308
2,C=CCN1CCc2c(cc(O)c(O)c2Cl)C(c2ccccc2)C1 (stereo not drawn) [(?)-Chloro-APB hydrobromide] + C=CCn1c(=O)c2cnc(Nc3ccc(N4CCN(C)CC4)cc3)nc2n1-c1cccc(C(C)(C)O)n1 [MK1775],inactive: 0.19
3,O=C(CCCN1CCC(O)(c2ccc(Cl)cc2)CC1)c1ccc(F)cc1 [Haloperidol] + C=CCn1c(=O)c2cnc(Nc3ccc(N4CCN(C)CC4)cc3)nc2n1-c1cccc(C(C)(C)O)n1 [MK1775],inactive: 0.0704
4,CN1CCC(CNc2ccc3ncc(-c4cccc(OC(F)(F)F)c4)n3n2)CC1 [SGI-1776 free base] + C=CCn1c(=O)c2cnc(Nc3ccc(N4CCN(C)CC4)cc3)nc2n1-c1cccc(C(C)(C)O)n1 [MK1775],inactive: -0.935
5,"N=C(N)SCCc1ccc(CCSC(=N)N)cc1 [1,4-PBIT dihydrobromide] + C=CCn1c(=O)c2cnc(Nc3ccc(N4CCN(C)CC4)cc3)nc2n1-c1cccc(C(C)(C)O)n1 [MK1775]",inactive: -0.907
6,CC(N)(Cc1ccc(O)cc1)C(=O)O (racemic) [DL-alpha-Methyl-p-tyrosine] + C=CCn1c(=O)c2cnc(Nc3ccc(N4CCN(C)CC4)cc3)nc2n1-c1cccc(C(C)(C)O)n1 [MK1775],inactive: -1.05
7,COc1c(C)c2c(c(O)c1C/C=C(\C)CCC(=O)OCCN1CCOCC1)C(=O)OC2 [Mycophenolate mofetil (CellCept)] + C=CCn1c(=O)c2cnc(Nc3ccc(N4CCN(C)CC4)cc3)nc2n1-c1cccc(C(C)(C)O)n1 [MK1775],inactive: 1.66
8,CN1C(C(=O)Nc2ccccn2)=C(O)c2ccccc2S1(=O)=O [Piroxicam] + C=CCn1c(=O)c2cnc(Nc3ccc(N4CCN(C)CC4)cc3)nc2n1-c1cccc(C(C)(C)O)n1 [MK1775],inactive: -0.471
9,NCCS [Cysteamine hydrochloride] + C=CCn1c(=O)c2cnc(Nc3ccc(N4CCN(C)CC4)cc3)nc2n1-c1cccc(C(C)(C)O)n1 [MK1775],inactive: -0.65
10,COCCOC(=O)C1=C(C)NC(C)=C(C(=O)OC(C)C)C1c1cccc([N+](=O)[O-])c1 (stereo not drawn) [Nimodipine] + C=CCn1c(=O)c2cnc(Nc3ccc(N4CCN(C)CC4)cc3)nc2n1-c1cccc(C(C)(C)O)n1 [MK1775],inactive: 0.422
11,"COC(=O)[C@@H](N)Cc1ccc(O)c(O)c1 [L-3,4-Dihydroxyphenylalanine methyl ester hydrochloride] + C=CCn1c(=O)c2cnc(Nc3ccc(N4CCN(C)CC4)cc3)nc2n1-c1cccc(C(C)(C)O)n1 [MK1775]",inactive: 0.668
12,COc1ccc2c(c1)c(CC(=O)O)c(C)n2Cc1ccc(Cl)cc1 [1-(4-Chlorobenzyl)-5-methoxy-2-methylindole-3-acetic acid] + C=CCn1c(=O)c2cnc(Nc3ccc(N4CCN(C)CC4)cc3)nc2n1-c1cccc(C(C)(C)O)n1 [MK1775],inactive: 0.0334
13,CNCc1ccc(-c2[nH]c3cc(F)cc4c3c2CCNC4=O)cc1 + C=CCn1c(=O)c2cnc(Nc3ccc(N4CCN(C)CC4)cc3)nc2n1-c1cccc(C(C)(C)O)n1 [MK1775],inactive: -0.502
14,CCNC(=O)c1noc(-c2cc(C(C)C)c(O)cc2O)c1-c1ccc(CN2CCOCC2)cc1 + C=CCn1c(=O)c2cnc(Nc3ccc(N4CCN(C)CC4)cc3)nc2n1-c1cccc(C(C)(C)O)n1 [MK1775],inactive: -0.0717
15,Cc1cnc(-c2cnc(NCCNc3ccc(C#N)cn3)nc2-c2ccc(Cl)cc2Cl)[nH]1 + C=CCn1c(=O)c2cnc(Nc3ccc(N4CCN(C)CC4)cc3)nc2n1-c1cccc(C(C)(C)O)n1 [MK1775],inactive: -0.333
16,COc1cc(/C=C(\C#N)C(=O)c2ccc(O)c(O)c2)cc(I)c1O [I-OMe-Tyrphostin AG 538] + C=CCn1c(=O)c2cnc(Nc3ccc(N4CCN(C)CC4)cc3)nc2n1-c1cccc(C(C)(C)O)n1 [MK1775],inactive: 0.408
17,CC(C)Oc1cc(Nc2nc(N[C@@H](C)c3ccc(F)cn3)ncc2Cl)n[nH]1 + C=CCn1c(=O)c2cnc(Nc3ccc(N4CCN(C)CC4)cc3)nc2n1-c1cccc(C(C)(C)O)n1 [MK1775],inactive: -1.06
18,N[C@@H](Cc1c[nH]cn1)C(=O)O [L-Histidine hydrochloride] + C=CCn1c(=O)c2cnc(Nc3ccc(N4CCN(C)CC4)cc3)nc2n1-c1cccc(C(C)(C)O)n1 [MK1775],inactive: 0.921
19,CC(C[N+](C)(C)C)OC(N)=O (stereo not drawn) [Bethanechol chloride] + C=CCn1c(=O)c2cnc(Nc3ccc(N4CCN(C)CC4)cc3)nc2n1-c1cccc(C(C)(C)O)n1 [MK1775],inactive: 1.1
20,CC(=N)NCc1cccc(CN)c1 [1400W dihydrochloride] + C=CCn1c(=O)c2cnc(Nc3ccc(N4CCN(C)CC4)cc3)nc2n1-c1cccc(C(C)(C)O)n1 [MK1775],inactive: 0.028
21,Cc1cn([C@H]2C[C@H](N=[N+]=[N-])[C@@H](CO)O2)c(=O)[nH]c1=O [3'-Azido-3'-deoxythymidine] + C=CCn1c(=O)c2cnc(Nc3ccc(N4CCN(C)CC4)cc3)nc2n1-c1cccc(C(C)(C)O)n1 [MK1775],inactive: 0.548
22,COc1ccc([C@@H]2Sc3ccccc3N(CCN(C)C)C(=O)[C@@H]2OC(C)=O)cc1 [Diltiazem hydrochloride] + C=CCn1c(=O)c2cnc(Nc3ccc(N4CCN(C)CC4)cc3)nc2n1-c1cccc(C(C)(C)O)n1 [MK1775],inactive: 0.109
23,O=C1Nc2ccc(I)cc2/C1=C/c1cc(Br)c(O)c(Br)c1 + C=CCn1c(=O)c2cnc(Nc3ccc(N4CCN(C)CC4)cc3)nc2n1-c1cccc(C(C)(C)O)n1 [MK1775],inactive: 1.79

# Some values from the results shown.
# Under Z' of S-phase gammaH2AX difference (Z-score), CC(C[N+](C)(C)C)OC(N)=O (stereo not drawn) [Bethanechol chloride] + C=CCn1c(=O)c2cnc(Nc3ccc(N4CCN(C)CC4)cc3)nc2n1-c1cccc(C(C)(C)O)n1 [MK1775] reads inactive: 1.1
# Under Z' of S-phase gammaH2AX difference (Z-score), N=C(N)SCCc1ccc(CCSC(=N)N)cc1 [1,4-PBIT dihydrobromide] + C=CCn1c(=O)c2cnc(Nc3ccc(N4CCN(C)CC4)cc3)nc2n1-c1cccc(C(C)(C)O)n1 [MK1775] reads inactive: -0.907
